Among the data in patent US11903929B2, “Method for inhibiting dengue virus infection” (FLORIDA STATE UNIVERSITY RESEARCH FOUNDATION, INC., priority 2018, dated 2024) are IC50 values, retold here.

This assay has as its system Zika virus. Description: Zika viral production assay (infectious viral titer assay on Vero cells). It is filed as cell-based. The note with it: read-out: Anti-ZIKV activity IC50.

The IC50 is the midpoint of a concentration-inhibition curve. In the case of `COc1cc2c(c(OC)c1OC)-c1ccc(OC)c(=O)cc1[C@@H](NC(C)=O)CC2` [NCGC00025125-18, N-[(7S)-1,2,3,10-tetramethoxy-9-oxo-6,7-dihydro-5H-benzo[a]heptalen-7-yl]acetamide], the half-maximal inhibitory concentration (IC50) was determined as 709 pM.
